Primary screen of a compound library

Chains of the proteins cited; added tags and fusions are not shown.
UniProt E9BF75, entry or part of it: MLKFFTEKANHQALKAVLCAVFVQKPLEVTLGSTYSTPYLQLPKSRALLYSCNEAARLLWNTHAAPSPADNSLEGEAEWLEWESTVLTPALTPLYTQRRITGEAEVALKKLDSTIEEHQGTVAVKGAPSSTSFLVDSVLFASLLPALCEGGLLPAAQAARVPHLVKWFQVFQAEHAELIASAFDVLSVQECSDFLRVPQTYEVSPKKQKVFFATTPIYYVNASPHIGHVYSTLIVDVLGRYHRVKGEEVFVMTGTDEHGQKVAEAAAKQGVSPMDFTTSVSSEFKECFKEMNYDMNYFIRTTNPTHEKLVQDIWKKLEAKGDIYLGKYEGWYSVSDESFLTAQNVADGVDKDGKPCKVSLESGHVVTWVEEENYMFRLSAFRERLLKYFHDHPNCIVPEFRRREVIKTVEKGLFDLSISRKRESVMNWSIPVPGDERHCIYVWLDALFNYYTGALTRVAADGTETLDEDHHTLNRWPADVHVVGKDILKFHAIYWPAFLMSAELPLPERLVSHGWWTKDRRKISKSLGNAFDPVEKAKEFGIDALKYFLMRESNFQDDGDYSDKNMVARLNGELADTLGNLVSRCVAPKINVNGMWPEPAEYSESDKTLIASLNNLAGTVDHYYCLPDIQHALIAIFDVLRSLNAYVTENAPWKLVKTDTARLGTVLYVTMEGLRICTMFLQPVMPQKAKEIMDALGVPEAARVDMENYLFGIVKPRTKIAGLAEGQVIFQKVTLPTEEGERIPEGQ

Data taken from ChEMBL document CHEMBL3988442, “University of Dundee, Small-Polar-MMV Screening Library” (2021).

A: 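Methionyl-tRNA synthetase (putative), Leishmania donovani (UniProt E9BF75). Primary screen of methionyl-tRNA synthetase; the read-out is not stated. The test concentration is not given. Values are per cent inhibition. Of about 68,000 compounds tested this way, about 24 (0.035%) reached 50% or more in at least one test.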
B: 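Assay on Mycobacterium tuberculosis, filed only as a heat shock assay from Cornell; the read-out is not stated. The concentration is filed as 10 mM, unlikely as a test dose, so the dose is not known. Direction is inferred from retests: higher values go with stronger inhibition. Of about 69,000 compounds tested this way, about 930 (1.4%) reached 50% or more in at least one test.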

Results are percentages, as filed.
The record does not define 0% and 100%; most values in the screen are far below 50% and negative numbers occur (in some assays of this library far below -100).
The compounds are a random part of those screened.

{"compound": "O=C(CCc1ccco1)NS(=O)(=O)N1CCOc2ccccc21", "A": 16.25, "B": 18.84}
{"compound": "Cc1nc(C2CCCN2Cc2nccn2CC(F)(F)F)no1", "stereo": "stereo not shown", "A": 6.024, "B": -9.202}
{"compound": "CCC(=O)N1CCCCC1c1nc(O)c2c(n1)CN(C(C)=O)CC2", "stereo": "stereo not shown", "A": 13.08, "B": -7.997}
{"compound": "Cl.c1cc(CNCc2ccnc(N3CCOCC3)c2)c2c(c1)OCO2", "B": -16.61}
{"compound": "CNC(=O)[C@@H]1C[C@@H](N)CN1Cc1cc2cc(C)cc(C)c2[nH]c1=O", "A": 4.337, "B": 27.07}
{"compound": "COc1cc2nc(C)n(CC(=O)NCCCO)c(=O)c2cc1OC", "A": 3.161, "B": -7.144}
{"compound": "CC(C)(C)n1ncc(NCCc2ccccc2C(F)(F)F)c(Cl)c1=O", "A": 12.89, "B": -14.79}
{"compound": "CCCc1n[nH]c(=O)n1Cc1ccccc1F", "A": 21.74, "B": -5.614}
{"compound": "O=C(c1ccco1)N1CCC2(CCC(=O)N2Cc2cccc(F)c2)CC1", "A": 15.15, "B": -12.48}
{"compound": "Cc1cccc(S(=O)(=O)N2C[C@@H]3C[C@@H](c4nc(C)no4)O[C@@H]3C2)c1", "A": 1.099}
{"compound": "CCn1cnnc1C1CCN(C(=O)c2ccccc2F)CC1", "A": 13.96, "B": -14.8}
{"compound": "Cc1nccn1CC1CCCN(S(=O)(=O)c2cnn(C)c2)C1", "stereo": "stereo not shown", "A": 10.11, "B": -13.72}
{"compound": "CCCNC(=O)c1[nH]nc(C2CC2)c1Br", "A": 5.307, "B": -11.81}
{"compound": "COC(=O)CCC(=O)N1CCC2(CN(Cc3ccccc3F)C2)C1", "A": 9.137, "B": -28.42}
{"compound": "Cc1nc(-c2ccsc2)ccc1C(=O)NCCN1CCN(C)CC1", "A": 21.31, "B": -13.97}
{"compound": "COc1cccc(Nc2nc(C3CCNCC3)c3sc(C)c(C)n23)c1", "A": 15.58}
{"compound": "CN(C)CCN1CCCC12CCN(C(=O)c1ccco1)CC2.O=C(O)C(F)(F)F.O=C(O)C(F)(F)F", "B": -2.887}
{"compound": "CC(=O)N1CC[C@H]2OCC[C@@H](C(=O)NCc3ccco3)[C@@H]2C1", "A": 1.333}
{"compound": "CCOc1cccc(NC(=O)c2cscn2)n1", "A": 17.96, "B": 25.57}
{"compound": "Cl.NC(=O)CCc1cccc(C2CCNCC2)n1", "B": 3.085}
{"compound": "Cc1noc(C)c1CN(C)c1ncnc2onc(C)c12", "A": 5.897, "B": -23.26}
{"compound": "CC(C)(C)OC(=O)N1CC(CC(=O)NCc2ccsc2)C1", "A": 8.357, "B": -9.409}
{"compound": "COc1ccc(CN2CC(O)CN(C(=O)CC(C)C)CC2=O)cc1", "stereo": "stereo not shown", "A": 8.493, "B": 33.87}
{"compound": "CNC(=O)c1ccc(OC2CCN(S(C)(=O)=O)CC2)c(Cl)c1", "A": 15.04, "B": -0.02724}
{"compound": "COc1ccc(NC(=O)N2CCC(c3nnc[nH]3)CC2)cc1C", "A": 11.17, "B": 13.49}
{"compound": "Cc1ccc(CN(C)C(=O)CN2CCCCC2Cn2cncn2)cc1", "stereo": "stereo not shown", "A": 23.6, "B": -14.18}
{"compound": "Cc1ncccc1C(=O)NCC(C)Oc1ccc(F)cc1", "stereo": "stereo not shown", "A": 16.13, "B": -7.588}
{"compound": "Cc1cc(C(=O)N[C@@H]2CCNC[C@H]2O)ccc1Cl", "A": 11.23, "B": -4.281}
{"compound": "CS(=O)(=O)c1ccc(C(=O)N2CCCC(n3cncn3)C2)o1", "stereo": "stereo not shown", "A": -5.707, "B": -18.55}
{"compound": "Cc1ccc(C(=O)NCCS(=O)(=O)Cc2ccccc2)c(=O)[nH]1", "A": 10.31, "B": -18.13}
{"compound": "COCCNC(=O)[C@@H]1C[C@H]2[C@H](CCN2c2cc(OC)ncn2)O1", "A": 7.397}
{"compound": "COCc1nc(N(C)C)ncc1C(=O)NC(C)c1ccccc1", "stereo": "stereo not shown", "A": -25.88, "B": -12.65}
{"compound": "COCC(=O)N1CCCC(C)(c2nncn2C)C1", "stereo": "stereo not shown", "A": 9.688, "B": 11.29}
{"compound": "COc1ccc(CNCCc2cccc(C(N)=O)c2)cc1C", "A": 4.396, "B": -18.64}
{"compound": "COCCNC(=O)c1ccc2c(=O)n3c(nc2c1)CCCCC3", "A": 11.66, "B": 1.211}
{"compound": "COc1ccc(OC)c(CNCc2ccnc(N3CCCCC3)c2)c1", "A": 27.18, "B": -2.689}

The last 3 entries again:

With COc1ccc(CNCCc2cccc(C(N)=O)c2)cc1C the screen gave A: 4.396%; B: -18.64%.
With COCCNC(=O)c1ccc2c(=O)n3c(nc2c1)CCCCC3 the screen gave A: 11.66%; B: 1.211%.
With COc1ccc(OC)c(CNCc2ccnc(N3CCCCC3)c2)c1 the screen gave A: 27.18%; B: -2.689%.